Values from PubChem BioAssay AID1224831 (NIAID, 2016)
Test: 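Retesting screen hits on the TLR4-driven TNF response with six separate siRNAs each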 (follow-up of hits). Cell system: human THP-1 B5 monocytic leukaemia cells carrying a TNF promoter luciferase reporter, made macrophage-like with PMA. Knock-down reagent: single siRNA against human genes, 50 nM. Time to read-out: about 68 h of knock-down, then 4 h LPS. Treatment: LPS (Salmonella minnesota, TLR-grade) at 10 ng/ml for 4 h; PMA 5 ng/ml present during knock-down. Measurement: 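TNF promoter reporter read as dual luciferase ratio after 4 h LPS, normalised per plate to its median, given as replicate mean robust z-score per siRNA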. Direction: TNF reporter z-score: higher = stronger LPS-induced TNF reporter signal; z-score, median over gene's siRNAs: higher = stronger TNF reporter signal across the gene's siRNAs. Call rule: 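Active when the replicate mean z-score is about -1 or lower, or about 1.5 or higher; lowered and raised TNF reporter signal both count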. Meaning of the calls: active = changed TNF reporter (either direction); inactive = little change.
The deposit covers about 3,500 reagents; below is a random part of them. 731 of them (21%) were called active. 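Active means either lowered or raised reporter signal; the gene-median score did not drive the per-siRNA calls.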 Reagents against one gene are numbered here.

For SNRPC #1, what does the deposit list?
TNF reporter z-score, replicate mean: -0.72; z-score, median over gene's siRNAs: -0.675; Call: inactive

What is on record for SNRPC #2?
TNF reporter z-score, replicate mean: 0; z-score, median over gene's siRNAs: -0.675; Call: inactive

For SNRPC #3, what was measured?
TNF reporter z-score, replicate mean: -1.16; z-score, median over gene's siRNAs: -0.675; Call: active

How did the screen score SNRPC #4?
TNF reporter z-score, replicate mean: -0.85; z-score, median over gene's siRNAs: -0.675; Call: inactive

For SNRPC #5, what does the deposit list?
TNF reporter z-score, replicate mean: -0.23; z-score, median over gene's siRNAs: -0.675; Call: inactive

With SNRPC #6, what was measured?
TNF reporter z-score, replicate mean: -0.63; z-score, median over gene's siRNAs: -0.675; Call: inactive

With TGM3 #1, how do the results read?
TNF reporter z-score, replicate mean: 0.99; z-score, median over gene's siRNAs: 0.715; Call: inactive

Which result is listed for TGM3 #2?
TNF reporter z-score, replicate mean: 1.37; z-score, median over gene's siRNAs: 0.715; Call: inactive

What did the screen give for TGM3 #3?
TNF reporter z-score, replicate mean: 0.43; z-score, median over gene's siRNAs: 0.715; Call: inactive

How did the screen score TGM3 #4?
TNF reporter z-score, replicate mean: 0.44; z-score, median over gene's siRNAs: 0.715; Call: inactive

For TGM3 #5, what does the deposit list?
TNF reporter z-score, replicate mean: 1.98; z-score, median over gene's siRNAs: 0.715; Call: active

For TGM3 #6, how do the results read?
TNF reporter z-score, replicate mean: 0.26; z-score, median over gene's siRNAs: 0.715; Call: inactive

Which result is listed for SCN1B #1?
TNF reporter z-score, replicate mean: -0.3; z-score, median over gene's siRNAs: 1.29; Call: inactive

With SCN1B #2, what does the deposit list?
TNF reporter z-score, replicate mean: 1.18; z-score, median over gene's siRNAs: 1.29; Call: inactive

With SCN1B #3, what was measured?
TNF reporter z-score, replicate mean: 2.01; z-score, median over gene's siRNAs: 1.29; Call: active

For SCN1B #4, how do the results read?
TNF reporter z-score, replicate mean: 1.41; z-score, median over gene's siRNAs: 1.29; Call: inactive

What did the screen give for SCN1B #5?
TNF reporter z-score, replicate mean: -0.48; z-score, median over gene's siRNAs: 1.29; Call: inactive

What is on record for SCN1B #6?
TNF reporter z-score, replicate mean: 2.82; z-score, median over gene's siRNAs: 1.29; Call: active

For SPANXN5 #1, what does the deposit list?
TNF reporter z-score, replicate mean: 0.72; z-score, median over gene's siRNAs: 0.255; Call: inactive

What is on record for SPANXN5 #2?
TNF reporter z-score, replicate mean: 0.23; z-score, median over gene's siRNAs: 0.255; Call: inactive

For SPANXN5 #3, how do the results read?
TNF reporter z-score, replicate mean: -0.1; z-score, median over gene's siRNAs: 0.255; Call: inactive

What did the screen give for SPANXN5 #4?
TNF reporter z-score, replicate mean: 0.28; z-score, median over gene's siRNAs: 0.255; Call: inactive

What is on record for SPANXN5 #5?
TNF reporter z-score, replicate mean: 0.09; z-score, median over gene's siRNAs: 0.255; Call: inactive

With SPANXN5 #6, what was measured?
TNF reporter z-score, replicate mean: 0.41; z-score, median over gene's siRNAs: 0.255; Call: inactive

Ordered by “TNF reporter z-score, replicate mean” (descending): 2 of the entries above
SPANXN5 #4 — TNF reporter z-score, replicate mean = 0.28; z-score, median over gene's siRNAs = 0.255; Call = inactive
SPANXN5 #3 — TNF reporter z-score, replicate mean = -0.1; z-score, median over gene's siRNAs = 0.255; Call = inactive

Continued:
For IL4I1 #1, what does the deposit list?
TNF reporter z-score, replicate mean: 0.85; z-score, median over gene's siRNAs: 0.35; Call: inactive

With IL4I1 #2, what does the deposit list?
TNF reporter z-score, replicate mean: 1.16; z-score, median over gene's siRNAs: 0.35; Call: inactive

What did the screen give for IL4I1 #3?
TNF reporter z-score, replicate mean: 3.15; z-score, median over gene's siRNAs: 0.35; Call: active

What is on record for IL4I1 #4?
TNF reporter z-score, replicate mean: -0.64; z-score, median over gene's siRNAs: 0.35; Call: inactive

For IL4I1 #5, what does the deposit list?
TNF reporter z-score, replicate mean: -1.3; z-score, median over gene's siRNAs: 0.35; Call: active

With IL4I1 #6, what was measured?
TNF reporter z-score, replicate mean: -0.15; z-score, median over gene's siRNAs: 0.35; Call: inactive

For CCR2 #1, how do the results read?
TNF reporter z-score, replicate mean: -0.52; z-score, median over gene's siRNAs: 0.83; Call: inactive

How did the screen score CCR2 #2?
TNF reporter z-score, replicate mean: 1.14; z-score, median over gene's siRNAs: 0.83; Call: inactive

With CCR2 #3, how do the results read?
TNF reporter z-score, replicate mean: 1.49; z-score, median over gene's siRNAs: 0.83; Call: inactive

For CCR2 #4, how do the results read?
TNF reporter z-score, replicate mean: -0.02; z-score, median over gene's siRNAs: 0.83; Call: inactive

What did the screen give for CCR2 #5?
TNF reporter z-score, replicate mean: 0.52; z-score, median over gene's siRNAs: 0.83; Call: inactive

With CCR2 #6, what was measured?
TNF reporter z-score, replicate mean: 4.17; z-score, median over gene's siRNAs: 0.83; Call: active

Which result is listed for ARID1B #1?
TNF reporter z-score, replicate mean: -1.11; z-score, median over gene's siRNAs: -0.835; Call: active

Which result is listed for ARID1B #2?
TNF reporter z-score, replicate mean: -1.21; z-score, median over gene's siRNAs: -0.835; Call: active

Which result is listed for ARID1B #3?
TNF reporter z-score, replicate mean: -0.22; z-score, median over gene's siRNAs: -0.835; Call: inactive

For ARID1B #4, what was measured?
TNF reporter z-score, replicate mean: -1.47; z-score, median over gene's siRNAs: -0.835; Call: active

For ARID1B #5, what does the deposit list?
TNF reporter z-score, replicate mean: -0.56; z-score, median over gene's siRNAs: -0.835; Call: inactive

For ARID1B #6, what does the deposit list?
TNF reporter z-score, replicate mean: 0.71; z-score, median over gene's siRNAs: -0.835; Call: inactive
